Measured values reported in paper PMC7352305.
No constants are given. Whether binding was seen depends on the method and setting. In cells and extracts the contact can be indirect. Some results given as binding are weak or reduced against the parent protein; the word gives no strength.

The chains behind the UniProt entries cited, without tags or fusion partners. Residues count along the entry.
UniProt P17948, residues 27-1338: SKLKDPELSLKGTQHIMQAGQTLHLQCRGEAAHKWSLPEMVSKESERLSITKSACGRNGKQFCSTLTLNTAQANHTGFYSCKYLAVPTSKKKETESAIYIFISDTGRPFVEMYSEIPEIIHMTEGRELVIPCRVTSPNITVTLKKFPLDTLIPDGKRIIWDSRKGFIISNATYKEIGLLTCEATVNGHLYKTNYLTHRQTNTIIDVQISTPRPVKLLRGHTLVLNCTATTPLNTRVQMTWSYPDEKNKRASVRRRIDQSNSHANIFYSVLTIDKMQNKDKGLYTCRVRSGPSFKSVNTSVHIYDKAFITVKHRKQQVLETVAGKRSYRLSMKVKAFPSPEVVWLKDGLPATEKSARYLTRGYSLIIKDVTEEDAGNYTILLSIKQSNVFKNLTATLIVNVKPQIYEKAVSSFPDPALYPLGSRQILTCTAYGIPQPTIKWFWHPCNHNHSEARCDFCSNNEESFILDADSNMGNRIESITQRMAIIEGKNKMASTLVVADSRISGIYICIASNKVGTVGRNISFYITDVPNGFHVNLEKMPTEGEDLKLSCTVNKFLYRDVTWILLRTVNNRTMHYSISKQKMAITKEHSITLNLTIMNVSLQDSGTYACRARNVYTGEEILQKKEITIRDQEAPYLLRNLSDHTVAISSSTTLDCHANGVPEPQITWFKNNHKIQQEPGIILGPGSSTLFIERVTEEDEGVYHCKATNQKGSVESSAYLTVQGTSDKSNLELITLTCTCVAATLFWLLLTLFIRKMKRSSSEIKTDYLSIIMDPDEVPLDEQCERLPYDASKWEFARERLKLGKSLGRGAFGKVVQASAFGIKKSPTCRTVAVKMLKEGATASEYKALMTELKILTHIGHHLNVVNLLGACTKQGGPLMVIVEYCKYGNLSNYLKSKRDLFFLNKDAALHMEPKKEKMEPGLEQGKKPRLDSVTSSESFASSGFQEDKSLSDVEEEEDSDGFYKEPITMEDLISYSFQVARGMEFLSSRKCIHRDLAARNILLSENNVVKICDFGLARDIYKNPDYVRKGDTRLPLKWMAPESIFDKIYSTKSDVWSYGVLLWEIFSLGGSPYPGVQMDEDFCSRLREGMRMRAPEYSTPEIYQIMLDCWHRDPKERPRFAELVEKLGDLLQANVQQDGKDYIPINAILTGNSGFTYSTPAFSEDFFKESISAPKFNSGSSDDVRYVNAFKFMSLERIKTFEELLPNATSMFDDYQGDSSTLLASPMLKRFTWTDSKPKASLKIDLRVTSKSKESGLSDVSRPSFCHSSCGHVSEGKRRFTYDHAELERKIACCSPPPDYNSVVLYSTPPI

T1: Vav1 (precipitated with Vav1 antibody in the co-IP of Figure 2C) (UniProt P15498)
T1 sequence: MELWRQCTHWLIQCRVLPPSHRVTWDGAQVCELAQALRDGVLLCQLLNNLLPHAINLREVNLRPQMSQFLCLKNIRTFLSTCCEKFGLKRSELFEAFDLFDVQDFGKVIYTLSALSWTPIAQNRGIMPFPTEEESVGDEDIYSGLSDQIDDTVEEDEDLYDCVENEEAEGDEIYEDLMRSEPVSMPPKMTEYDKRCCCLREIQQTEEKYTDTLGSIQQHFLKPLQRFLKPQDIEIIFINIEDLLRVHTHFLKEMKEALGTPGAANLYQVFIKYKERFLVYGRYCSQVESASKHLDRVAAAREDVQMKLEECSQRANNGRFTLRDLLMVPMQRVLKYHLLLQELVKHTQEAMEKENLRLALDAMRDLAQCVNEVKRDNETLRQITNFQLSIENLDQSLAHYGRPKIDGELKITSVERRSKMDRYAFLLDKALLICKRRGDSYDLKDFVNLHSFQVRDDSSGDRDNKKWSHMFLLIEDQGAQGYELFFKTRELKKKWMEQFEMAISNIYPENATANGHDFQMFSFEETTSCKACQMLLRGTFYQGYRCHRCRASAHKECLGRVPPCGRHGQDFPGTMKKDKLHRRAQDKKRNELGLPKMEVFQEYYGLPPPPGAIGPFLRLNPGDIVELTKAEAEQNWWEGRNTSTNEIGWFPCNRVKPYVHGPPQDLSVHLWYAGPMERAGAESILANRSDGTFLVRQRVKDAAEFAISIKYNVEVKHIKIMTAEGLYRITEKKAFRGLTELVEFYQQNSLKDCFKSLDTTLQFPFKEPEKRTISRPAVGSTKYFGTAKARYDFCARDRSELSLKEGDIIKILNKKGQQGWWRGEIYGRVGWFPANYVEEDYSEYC

B1: Vav1 (protein, UniProt P15498 1-845)
chain: T1 sequence

Tests used:
[1] = target: T1, Vav1 (precipitated with Vav1 antibody in the co-IP of Figure 2C); assay: co-IP; cells overexpressing wild type or ΔYKEP VEGFR1; precipitation with Vav1 antibody; blot for Vav1 and VEGFR1
[2] = target: vascular endothelial growth factor receptor 1 (VEGFR1) (human (endogenous in HUVEC)) (UniProt P17948); assay: co-IP; anti-VEGFR1 antibody or control IgG on HUVEC cell lysate, protein A/G magnetic beads, overnight; blot for Vav1 and VEGFR1

Molecule | binding [1] | binding [2]
Overexpressed wild type VEGFR1 (from UniProt P17948 27-1338) (receptor) | binds | –
B1 | – | binds
